# According to article PMC9972587, “SIRT2-PFKP interaction dysregulates phagocytosis in macrophages with acute ethanol-exposure” (Frontiers in Immunology, 2022):
# Results are given in words; binding and its absence hold for the method and conditions named. Binding seen in cells or lysates may run through a third protein. Some entries that bind do so weakly or less than the wild type.
# T1: Sirtuin 2 (SIRT2), endogenous in RAW 264.7 cell macrophages (mouse (endogenous in RAW 264.7)) (UniProt Q8VDQ8)
# T1 sequence: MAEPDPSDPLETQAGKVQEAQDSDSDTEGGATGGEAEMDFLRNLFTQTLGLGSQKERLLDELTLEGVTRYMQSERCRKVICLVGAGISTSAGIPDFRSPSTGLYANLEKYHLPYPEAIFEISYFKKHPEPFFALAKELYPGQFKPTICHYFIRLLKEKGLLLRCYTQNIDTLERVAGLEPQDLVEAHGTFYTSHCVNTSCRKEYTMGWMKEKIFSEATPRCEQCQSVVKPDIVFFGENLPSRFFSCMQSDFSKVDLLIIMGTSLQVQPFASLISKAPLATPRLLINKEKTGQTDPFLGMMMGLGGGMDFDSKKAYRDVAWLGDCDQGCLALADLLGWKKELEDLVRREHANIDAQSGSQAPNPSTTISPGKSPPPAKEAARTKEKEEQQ
# Target: T1, Sirtuin 2 (SIRT2), endogenous in RAW 264.7 cell macrophages (mouse (endogenous in RAW 264.7))
# Assay: co-IP; RAW 264.7 cell macrophages ± LPS (100 ng/mL, 4 h); whole-cell lysate; IP with anti-SIRT2 antibody, immunoblot of PFKP and SIRT2; isotype IgG control as negative control
binder,measurement,value
"Phosphofructokinase-platelet isoform (PFKP), endogenous in RAW 264.7 cell macrophages (enzyme, UniProt Q9WUA3 1-784) MSDLDSSSSSAYPKYLEHLSGDGKAIGVLTSGGDAQGMNAAVRAVVRMGIYTGAKVYFIYEGYQGLVDGGSNIVEAKWDCVSSILQVGGTIIGSARCKAFRSREGRLKAACNLARLGITNLCVIGGDGSLTGANLFRKEWSGLLEELARNGDIDNDTVQKYSYLNVVGMVGSIDNDFCGTDMTIGTDSALHRIIEVVDAIMTTAQSHQRTFVLEVMGRHCGYLALVSALTCGADWVFLPESPPEEDWEENMCLKLSENRARKKRLNIIIVSEGAIDMQNKPITSEKIKELVVKNLGFDTRVTILGHVQRGGTPSAFDRILASRMGVEAVIALLEATPETPACVVSLRGNQAVRLPLMECVQMTQDVQKAMDERRFKEAVKLRGRRFEGNLNTYKRLAIKLPDEKIVKSNCNVAVINVGAPAAGMNAAVRSAVRVGIADGHKMFAIYDGFEGFANGQIKEIGWADVGGWTGQGGSILGTKRTLPGKYLEKIAEQMHSHSINALLIIGGFEAYLGLLELAAAREKHEAFCVPMVMVPATVSNNVPGSDFSIGADTALNTITDTCDRIKQSASGTKRRVFIIETMGGYCGYLANMGALAAGADAAYIFEEPFDIGDLQSNVVHLTEKMKTSIQRGLVLRNESCSVNYTTDFIYQLYSEEGKGVFDCRKNVLGHMQQGGAPSPFDRNFGTKISAKAMEWISAKLKGSQGTGKKFVSDDSICVLGICKRDLLFQPVAELKKVTDFEHRIPKEQWWLKLRPIMKILAKYEASYDMSDSGKLESLQHHEEL",binding,binds
